{"sequences": {"note": "Chains of the proteins cited; added tags and fusions are not shown. Lines headed by an entry give the natural chain unless they say otherwise; changes in a name come on top.", "UniProt Q2NNR5": "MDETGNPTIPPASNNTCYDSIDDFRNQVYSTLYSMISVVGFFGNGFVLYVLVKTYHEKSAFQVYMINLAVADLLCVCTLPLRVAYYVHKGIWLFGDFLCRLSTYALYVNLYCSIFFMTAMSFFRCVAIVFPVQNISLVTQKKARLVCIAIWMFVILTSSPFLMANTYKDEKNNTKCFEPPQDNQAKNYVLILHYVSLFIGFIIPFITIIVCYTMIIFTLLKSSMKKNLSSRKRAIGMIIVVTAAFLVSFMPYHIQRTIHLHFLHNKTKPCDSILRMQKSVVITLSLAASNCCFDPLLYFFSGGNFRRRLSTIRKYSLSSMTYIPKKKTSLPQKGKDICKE"}, "source": "PubChem BioAssay (EPA / NIEHS)", "note": "The inconclusive results got no clear call from the source; some entries with a clear call stand among them for comparison. A potency beside an inconclusive call is a rough fit, not a confirmed value. More than one record can exist for a structure, and the calls need not agree. The source made the active and inactive calls. The calls were made as follows: active = hit-call score of the fitted dose curve at least 0.9, where 1 is the maximum; inconclusive = response in the unintended direction; inactive = score below 0.9.", "data": [{"molecular_target": "guinea pig Leukotriene D4 Receptor (LTD4), CYSLTR1 (gene 100135514) (UniProt Q2NNR5)", "assay": "NVS_GPCR_gLTD4: NovaScreen (NVS) G Protein-Coupled Receptor Assay for guinea pig Leukotriene D4 Receptor (LTD4) (AID 2283248)", "method": "NVS_GPCR_gLTD4 is a biochemical, single-readout assay that uses extracted gene-proteins from Guinea pig lung membranes in a tissue-based cell-free assay. Measurements were taken 1 hour after chemical dosing in a 48-well plate.NVS_GPCR_gLTD4 is one of one assay component(s) measured or calculated from the NVS_GPCR_gLTD4 assay. It is designed to make measurements of radioligand binding, a form of binding reporter, as detected with scintillation counting signals by Filter-based radiodetection technology.Data from the assay component NVS_GPCR_gLTD4 was analyzed into 1 assay endpoint. This assay endpoint, NVS_GPCR_gLTD4, was analyzed in the positive analysis fitting direction relative to DMSO as the negative control and baseline of activity. Using a type of binding reporter, loss-of-signal activity can be used to understand changes in the binding as they relate to the gene Cysltr1. Furthermore, this assay endpoint can be referred to as a primary readout, because the performed assay has only produced 1 assay endpoint. To generalize the intended target to other relatable targets, this assay endpoint is annotated to the gpcr intended target family, where the subfamily is rhodopsin-like receptor.\nBinding assays used specific radioligands (tritiated, iodinated) with non-radioactive competitive displacement ligands in agonist or antagonist protocols (as indicated) and various reference compounds and inhibitors to titrate specific binding to receptors and transporters. Most enzyme assays (CYPs, kinases, phosphatases, proteases, HDACs) used recombinant protein and specific substrates (fluorescence mostly, some colorimetric and radioactive) and inhibitors, followed by a biochemical separation of substrate and product. All assays for the biochemical HTS were initially run in duplicate at a single concentration (10 uM for CYP450 assays and 25 uM for all others). Assay-chemical combinations meeting a pre-defined threshold (e.g., 30% inhibition and other criteria defined below) were then run in singleton concentration-response format with maximum concentration of 20 uM for CYPs and 50 uM for all others. Each assay was run with positive and negative controls, and concurrent controls on every plate. The follow-up (secondary) screen tested active chemical-pairs in concentration series, as well as a few additional assays not tested in the primary screen, some selected negative inactives, and several cases re-run in the concentration series for confirmatory purposes.", "values": [{"smiles": "[Cl-].[Cl-].[Hg+2]", "AC50": "active: 1.4 µM"}, {"smiles": "CCNc1nc(Cl)nc(NC(C)C)n1", "AC50": "inconclusive: 6.62 µM"}, {"smiles": "CC(C)[N+](=O)[O-]", "AC50": "inconclusive: 0.00229 µM"}, {"smiles": "CCCCOCC1CO1", "note": "(stereo not given)", "AC50": "inconclusive: 6.9 µM"}, {"smiles": "O=S(=O)(O)C(F)(F)C(F)(F)C(F)(F)C(F)(F)C(F)(F)C(F)(F)C(F)(F)C(F)(F)F", "AC50": "active: 24 µM [middle of 4 runs]"}, {"smiles": "CCCCC(CC)CO[N+](=O)[O-]", "note": "(stereo not given)", "AC50": "inconclusive: 25 µM"}, {"smiles": "CC1(C)[C@H](C(=O)O[C@H](C#N)c2cccc(Oc3ccccc3)c2)[C@@H]1C=C(Br)Br", "AC50": "inconclusive: 21.5 µM"}, {"smiles": "O=C(O)C(F)(F)C(F)(F)C(F)(F)C(F)(F)C(F)(F)C(F)(F)C(F)(F)C(F)(F)F", "outcome": "inactive"}, {"smiles": "CCCCCCCCCCCCc1cccc(S(=O)(=O)O)c1", "AC50": "active: 22.5 µM"}, {"smiles": "CCOP(=O)(OCC)Oc1cc(C)nc(C(C)C)n1", "AC50": "inconclusive: 0.398 µM"}]}]}
